# Earlier results as cited in US5603963A, “Method for the treatment of retroviral diseases such as acquired immune deficiency syndrome utilizing (pseudo)halogen complexes of gold(1)” (priority 1994, dated 1997).
# At least one structure is not confirmed: it was looked up by name or label, or the drawing left a doubt.
# Tested on: AIDS
# Details: cited from earlier work
smiles,measurement,value
"Cc1cn([C@H]2C[C@H](N=[N+]=[N-])[C@@H](CO)O2)c(=O)[nH]c1=O [AZT, azidothymidine]",effectiveness in slowing the progress of the disease,effective in slowing the progress of the disease
